Measurements reported in article PMC9922828.
These are yes or no findings as the source states them, for the method shown. Binding seen in cells or lysates may run through a third protein. Some binding calls cover weakened binding; strength is not graded here.

Amino acid sequences for entries named in this document (tags omitted).
UniProt Q07820: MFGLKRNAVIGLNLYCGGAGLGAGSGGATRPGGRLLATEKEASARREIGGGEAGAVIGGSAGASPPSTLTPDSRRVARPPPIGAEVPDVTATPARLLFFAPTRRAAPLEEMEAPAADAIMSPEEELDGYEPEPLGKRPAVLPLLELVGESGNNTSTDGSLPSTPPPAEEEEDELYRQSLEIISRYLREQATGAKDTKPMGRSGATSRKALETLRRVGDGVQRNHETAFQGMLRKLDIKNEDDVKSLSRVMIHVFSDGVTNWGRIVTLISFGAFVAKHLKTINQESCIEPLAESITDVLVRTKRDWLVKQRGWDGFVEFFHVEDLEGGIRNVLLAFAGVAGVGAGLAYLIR

Columns and labels:
[1] = biological target: polyhistidine-tagged Mcl-1 (UniProt Q07820); assay: pull-down; Ni-NTA agarose pull-down of 9His-Mcl-1 from lysates (EBC buffer: 50 mM Tris-HCl, 120 mM NaCl, 0.5% NP-40, pH 8.0) of HCT116 Mcl-1 KO cells stably expressing it, with or without alisertib (1 uM, 24 h); 2 h at 4 °C, washes with 10 mM imidazole, elution with imidazole, Western blot
[2] = biological target: polyhistidine-tagged Mcl-1, Q07820; assay: as above; conditions: remark: other sources report otherwise

Row | binding [1] | binding [2] | Binder
1 | no binding |  | Bad (protein, UniProt Q92934 1-168) MFQIPEFEPSEQEDSSSAERGLGPSPAGDGPSGSGKHHRQAPGLLWDASHQQEQPTSSSHHGGAGAVEIRSRHSSYPAGTEDDEGMGEEPSPFRGRSRSAPPNLWAAQRYGRELRRMSDEFVDSFKKGLPRPKSAGTATQMRQSSSWTRVFQSWWDRNLGRGSSAPSQ
2 |  | binds | Noxa, Q13794 1-54 (protein) MPGKKARKNAQPSPARAPAELEVECATQLRRFGDKLNFRQKLLNLISKLFCSGT
